# PMC7819943, “Rice protein-binding microarrays: a tool to detect cis-acting elements near promoter regions in rice”
# Some of the results follow.
# Biological target: T1, OsSMF1 (Oryza sativa, UniProt Q6ZLB0 1-436)
# T1 sequence: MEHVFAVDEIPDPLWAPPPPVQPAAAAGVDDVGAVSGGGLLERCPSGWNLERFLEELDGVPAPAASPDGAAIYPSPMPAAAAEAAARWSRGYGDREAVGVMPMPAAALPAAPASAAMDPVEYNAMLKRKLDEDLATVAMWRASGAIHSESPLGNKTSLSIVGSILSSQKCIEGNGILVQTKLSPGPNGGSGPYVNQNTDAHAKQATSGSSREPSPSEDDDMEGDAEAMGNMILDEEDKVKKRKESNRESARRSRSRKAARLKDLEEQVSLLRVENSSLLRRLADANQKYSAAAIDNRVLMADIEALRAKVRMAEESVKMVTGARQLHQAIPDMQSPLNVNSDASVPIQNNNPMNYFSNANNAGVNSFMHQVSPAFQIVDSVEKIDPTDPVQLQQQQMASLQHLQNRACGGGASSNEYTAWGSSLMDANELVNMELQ
# Test: protein-binding microarray (RPBM); PBS, 2% BSA, 51.3 ng/ul salmon testes DNA, 50 uM zinc acetate, 200 nM TF, 25 C, 1 h; high values mean tight binding
# Settings: protein: recombinant; tags: N-terminal polyhistidine and DsRed monomer fusion (pET32a); chain copies: 2; label: CyDye5-dUTP incorporated in the synthesized complementary strand; 3' TTTTT single-stranded linker to array surface; dsDNA, one strand shown
# In short: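 Polyhistidine-tagged DsRed fusions of transcription factors, joined at the N-terminus, were expressed in E. coli BL21-CodonPlus and isolated on Ni–NTA. They were incubated at 200 nM for 1 h at 25 °C on a custom Agilent array, double-stranded and BSA-blocked, in PBS with 2% BSA, salmon testes DNA and 50 µM zinc acetate. The binding signal is per-feature fluorescence intensity (arbitrary units) read on an Axon 4000B scanner after washing.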
row,Sequence,binding signal
1,CACATTTAATTCAAATTTCTGTTCGTCTTACAGTCAGCTACGGAGTCACCTAGTGCAG,3490 fluorescence intensity (a.u.)
2,CCTCCTGGCCCCACGCGCCCCACGCCACCTTGATACTCGCCGGAGTCACCTAGTGCAG,3660 fluorescence intensity (a.u.)
3,CATCATGGCCAGAAAACAATTAGCTCCTCGGCCCACGTGGCGGAGTCACCTAGTGCAG,7600 fluorescence intensity (a.u.)
4,CGGATCCATCAAGGTTGTTGATTCAAGCCTATGTGCAGTGCGGAGTCACCTAGTGCAG,4020 fluorescence intensity (a.u.)
5,AACCCCGTCAACATCGAGCGTCTCCAGGTAAGACGTCGCGCGGAGTCACCTAGTGCAG,3380 fluorescence intensity (a.u.)
6,AAGCACTCCAAACTGCAACGATTATATCAATAAAATAAAACGGAGTCACCTAGTGCAG,39000 fluorescence intensity (a.u.)
7,GTTTGGCCAATTGTCACCACCCAGCGTGTACGTACAACACCGGAGTCACCTAGTGCAG,3330 fluorescence intensity (a.u.)
8,GCTCTGTATATTGATTTGGTCAGTTGGATTAGGTCAACGACGGAGTCACCTAGTGCAG,3460 fluorescence intensity (a.u.)
9,AAACTGGCAAACGCGTCACATGAGTTTTACCTACCAATGTCGGAGTCACCTAGTGCAG,3230 fluorescence intensity (a.u.)
10,TGACAGGTGGGACCAGATATTAATAGTGTAGTATATCACTCGGAGTCACCTAGTGCAG,7080 fluorescence intensity (a.u.)
11,ATTTGGGGATCTCAGAAATTGTTATATTTTCAGACTGAGGCGGAGTCACCTAGTGCAG,19200 fluorescence intensity (a.u.)
12,ATCAGCAATCAGATCAGTACATCATCAAAGGGTGTGTAGTCGGAGTCACCTAGTGCAG,3580 fluorescence intensity (a.u.)
13,GGCCTCGCCGACCCCGTCACCAACATCATCCTCAACGCCGCGGAGTCACCTAGTGCAG,5900 fluorescence intensity (a.u.)
14,CCGCCGCTCCGCCTCCGCCGCATGCCGCGCGCCAAGGCCGCGGAGTCACCTAGTGCAG,3140 fluorescence intensity (a.u.)
15,CACAGAGTCAGAGTCAAATTACACCTGAGTTGGCAAAGTCCGGAGTCACCTAGTGCAG,5250 fluorescence intensity (a.u.)
16,TGGGACTGCGGCCCCACCTGTCAGCGAAGGGTTGAACTCCCGGAGTCACCTAGTGCAG,3900 fluorescence intensity (a.u.)
17,GAATTAATGTTCAACTTTGATCAACCTTACTTAGTCACATCGGAGTCACCTAGTGCAG,4200 fluorescence intensity (a.u.)
18,CGCGCCACGTAGCACACCCCTCCCTAGCCCCTACGCCGGCCGGAGTCACCTAGTGCAG,10100 fluorescence intensity (a.u.)
19,GGAAAGAGAGAGAGGGTGACGTGGACAACTGATTTGTGGGCGGAGTCACCTAGTGCAG,18700 fluorescence intensity (a.u.)
20,ATTATGTGCCACATCAAAATCTAAGTGGTTTTGTGTAAGTCGGAGTCACCTAGTGCAG,3940 fluorescence intensity (a.u.)
21,GCAGAAAGGGACACTGCAGCAGCATATTGTTGCTGTGTATCGGAGTCACCTAGTGCAG,8380 fluorescence intensity (a.u.)

# As entered above.
# In binding signal, GGAAAGAGAGAGAGGGTGACGTGGACAACTGATTTGTGGGCGGAGTCACCTAGTGCAG shows 18700 fluorescence intensity (a.u.)
# In binding signal, CACATTTAATTCAAATTTCTGTTCGTCTTACAGTCAGCTACGGAGTCACCTAGTGCAG shows 3490 fluorescence intensity (a.u.)

# Continued.

row,Sequence,binding signal
1,TGACATGACAAGTCACAGCCAACTTCTCAGAGTGTTAATACGGAGTCACCTAGTGCAG,3860 fluorescence intensity (a.u.)
2,GGTTCAGGGTACTTTTGGTACACCTCAGCTATTATGAGAGCGGAGTCACCTAGTGCAG,7550 fluorescence intensity (a.u.)
3,TTCCTGTAGATCGAGATGGCCTCGCTGTTCCAGCATCACCCGGAGTCACCTAGTGCAG,3480 fluorescence intensity (a.u.)
4,GCACGACATTTACTACGTGTATAGGTCAACGCTTAACCCTCGGAGTCACCTAGTGCAG,5470 fluorescence intensity (a.u.)
5,TGAGCCAATTTCCTTCTCCTCGTTCTCAAGATTGAGGACACGGAGTCACCTAGTGCAG,18400 fluorescence intensity (a.u.)
6,GTATCAAAACATATTCAATCATAGATTTAATGAAAACTAACGGAGTCACCTAGTGCAG,3360 fluorescence intensity (a.u.)
7,GACGAAGCTCTCCACCGGCGTGGTCCGTGGCAGCTACGGCCGGAGTCACCTAGTGCAG,27300 fluorescence intensity (a.u.)
8,ATCCGATGTGTTAGATCGGACGTCCCACATGGGCGCGTGTCGGAGTCACCTAGTGCAG,3440 fluorescence intensity (a.u.)
9,TGTTTACTACACATCAGACGAAAACCACATCGGATTGATTCGGAGTCACCTAGTGCAG,4220 fluorescence intensity (a.u.)
10,GAATTACCCAATTTACAGTTTTACACACGCAAATACTACCCGGAGTCACCTAGTGCAG,4640 fluorescence intensity (a.u.)
11,CAGCACGATGGGTCGGCCAGGCACGGAGCAAAATAGACAACGGAGTCACCTAGTGCAG,35700 fluorescence intensity (a.u.)
12,CGAGGTGAGAGGGGAGTGCGGCGATGGGAGGTGGGCGACGCGGAGTCACCTAGTGCAG,4440 fluorescence intensity (a.u.)
13,CACGTTGGAGCCATATGTATATATCGATGAGTCATCGATCCGGAGTCACCTAGTGCAG,17600 fluorescence intensity (a.u.)
14,CTTTCAATTCGTGGTGGCGTTGGTAGTAAAATTGACTCAACGGAGTCACCTAGTGCAG,22400 fluorescence intensity (a.u.)
15,GATCTATCTCAATCAACCCACGTGGCCTCACCTCGCCGGACGGAGTCACCTAGTGCAG,14100 fluorescence intensity (a.u.)
16,CCATGTGATTATATGGGCCAACCCTGAGCCGCTGACGTGGCGGAGTCACCTAGTGCAG,26600 fluorescence intensity (a.u.)
17,CCCTAGTAGTTGCTGTCTTGCTGACGAAGTTCATTTGGTGCGGAGTCACCTAGTGCAG,6660 fluorescence intensity (a.u.)
18,TAACCATTTTAAGCACACATGGCAGTGTCATCATCTTGAGCGGAGTCACCTAGTGCAG,3860 fluorescence intensity (a.u.)
19,GATGCCCTCGACGTCGCCGTGTCATGTCTAATGGAAGAATCGGAGTCACCTAGTGCAG,3310 fluorescence intensity (a.u.)
20,CCGAACCTTCAGATTAATATCTCTGCACGTCGTCGGTTGACGGAGTCACCTAGTGCAG,4320 fluorescence intensity (a.u.)
21,GGTTAGGGTGGTATACGTCATTACATTTACACCCCACCGCCGGAGTCACCTAGTGCAG,8050 fluorescence intensity (a.u.)
